Small-molecule microarray binding calls

Source: the ROBIN nucleic acid binder screens (doi:10.1002/anie.202211358).

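Each compound is printed as two spots on a slide made to bind it covalently, so it has no test concentration; the read-out is fluorescence of the bound, labelled oligonucleotide. For the PreQ1, TPP and SAM-II riboswitches the laboratory earlier reported (doi:10.1038/s41467-019-09493-3) 1 µM RNA, 2 h, and a rule that included a mean Z-score above 3 (spot signal-to-noise against the whole library), a score well above that on a control array, and duplicate spots agreeing (coefficient of variation under 100). The data file gives only the calls; its cut-offs may differ, and compounds hitting several targets are kept. These are primary screening calls, not affinities; a compound without a hit may have attached poorly or may still bind in solution.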 “active” means called a hit, “inactive” means screened and not called a hit. The compounds are a random part of those screened. A target missing from an entry has no call listed here.

Oligonucleotides screened, 5′ to 3′:
T1: TPP riboswitch RNA three-way junction, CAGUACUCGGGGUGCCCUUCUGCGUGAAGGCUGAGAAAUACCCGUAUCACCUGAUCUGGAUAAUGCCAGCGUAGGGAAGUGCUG. About 160 hits among about 24,000 compounds.
T2: SAM-II riboswitch RNA pseudoknot, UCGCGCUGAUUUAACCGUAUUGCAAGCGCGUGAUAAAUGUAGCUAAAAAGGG. About 200 hits among about 21,000 compounds.
T3: PreQ1 riboswitch RNA pseudoknot, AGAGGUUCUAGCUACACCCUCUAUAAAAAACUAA. From B. subtilis. About 170 hits among about 24,000 compounds.

- CC(=O)c1cccc(Nc2c3c(nc4ccccc24)CCCC3)c1 : T1: inactive; T2: inactive; T3: inactive
- CCCCc1[nH]nc2c1C1(CCN(C(=O)OCC)CC1)C(C#N)=C(N)O2 : T1: inactive; T2: inactive; T3: inactive
- Clc1ccc2ncc(-c3cccc(NC4CNC4)n3)n2c1 : T1: inactive; T2: inactive; T3: inactive
- COc1ccc(-c2cc3nc(C)cc(NCc4ccccc4)n3n2)cc1OC : T1: inactive; T3: inactive
- CCCCOC(=O)C1=C(N)OC2=C(C(=O)CC(C)(C)C2)C12C(=O)Nc1ccc(Br)cc12 (stereo not shown) : T1: inactive; T2: inactive; T3: inactive
- Cc1ccc(S(=O)(=O)NC(=O)Nc2nccs2)cc1 : T1: inactive; T2: inactive; T3: inactive
- Cc1cc(Nc2cccc(C(=O)N3CCCCC3)c2)n2nc(-c3cccnc3)nc2n1 : T1: inactive; T3: inactive
- O=C(Cc1ccc(CO)cc1)N1CCCC(COc2ccc(F)cc2)C1 (stereo not shown) : T1: inactive; T2: inactive; T3: inactive
- O=S(=O)(c1ccccc1)c1nc(-c2ccccc2F)oc1NCCCn1ccnc1 : T1: inactive; T3: inactive
- CC(=O)c1c(C)nn(CC(=O)N2Cc3ccccc3C(O)C2)c1C (stereo not shown) : T1: inactive; T2: inactive; T3: inactive
- NCC(c1ccccc1)N1CCC(c2ccccc2)=N1 (stereo not shown) : T1: inactive; T2: inactive; T3: inactive
- CCC(O)c1nc2ccccc2n1CCOc1ccc(Cl)c(C)c1 (stereo not shown) : T1: inactive; T3: inactive
- Cn1c(=O)n(C)c2cc(CNc3ccc(C(=O)O)cc3)ccc21 : T1: inactive; T3: inactive
- O=C(NCc1cccs1)c1nn(-c2ccc(Cl)cc2)nc1CO : T1: inactive; T3: inactive
- CCc1ccc(Nc2c(-c3ccccc3)c(=O)c2=O)cc1 : T1: inactive; T3: inactive
- CCNC(=O)[C@@H]1C[C@H](N)CN1C(=O)CC1=C(c2cccs2)CCC1=O : T1: inactive; T2: inactive; T3: inactive
- c1nc(NCCN2CCOCC2)c2nc3n(c2n1)CCCC3 : T1: inactive; T3: inactive
- NCCN1CCCn2nc(CN3CCC(Oc4ncccn4)CC3)cc2C1 : T1: inactive; T2: inactive; T3: inactive
- CCOC(=O)c1cnn(-c2cc(C)nc3c(-c4ccc(Cl)cc4)c(C(F)(F)F)nn23)c1N : T1: inactive; T3: inactive
- COC(=O)C1=C(N)OC2=C(C(=O)CC(C)(C)C2)C1c1ccc(Cl)cc1 (stereo not shown) : T1: inactive; T2: inactive; T3: inactive
- COc1cccc(N2CCC(NCc3noc(-c4ccco4)n3)CC2)c1 : T1: inactive; T2: inactive; T3: inactive
- OCc1cc2c(s1)CCCC2 : T1: inactive; T3: inactive
- Cc1cccc(N2CCN(CCC(=O)N3CC(O)CO3)CC2)c1 (stereo not shown) : T1: inactive; T2: inactive; T3: inactive
- CCN1CCN(Cc2nc3c(c(=O)n(C)c(=O)n3C)n2CCCO)CC1 : T1: inactive; T2: inactive; T3: inactive
- NCc1csc2c1CCCC2 : T1: inactive; T2: inactive; T3: inactive
- CCCCSc1nc(N)cc(NCc2cnn(C)c2)n1 : T1: inactive; T2: inactive; T3: inactive
- CN(C)[C@H]1CCN(C(=O)c2cn(C)c(=O)[nH]c2=O)C[C@H]1CCCO : T1: inactive; T2: inactive; T3: inactive
- CSc1nc(N)c(C(=O)Nc2ccc([N+](=O)[O-])cc2)s1 : T1: inactive; T2: inactive; T3: inactive
- c1ccc2c(Cc3c[nH]c4ccccc34)c[nH]c2c1 : T1: inactive; T2: inactive; T3: inactive
- Cc1ccn2c(Nc3ccccc3C)c(-c3cccnc3)nc2c1 : T1: inactive; T2: inactive; T3: inactive
- O=C(O)CCc1cccnc1 : T1: inactive; T2: inactive; T3: inactive
- CC1=C(c2ccc(C)cc2)S(=O)(=O)N=C1NCCCc1ccccc1 : T1: inactive; T3: inactive